This series is described as follows: Metabolic stability in rat liver microsomes (RLM).

Regarding `COc1cc2c(cc1OC)C(=O)C(CC1CCN(Cc3ccccc3)CC1)C2` (stereo not drawn) [Donepezil, reference compound], where the note is “RLM, protein concentration 0.5 mg/mL”, the “Metabolic Stability Major Metabolite” value is “not detected”. Under “male, rat, microsomes, pH 7.4”, this compound returned a half-life at 20 µM of 6.32 h and a microsomal CLint at 20 µM of 3.65 µL/min/mg.

The values above are taken from publication PMC9855333, “1-(Arylsulfonyl-isoindol-2-yl)piperazines as 5-HT6R Antagonists: Mechanochemical Synthesis, In Vitro Pharmacological Properties and Glioprotective Activity” (Biomolecules, 2022).
